Laboratory results published in the supplement of paper PMC3334620.
Whole data set: some 33,000 sequences, median “E-score (-0.5 to 0.5)” near -0.0059, cut for the highest 2% near 0.26. The list shows a part of the results.

These sequences were tested against T1, Cin5 (UniProt P40917) (assay: PBM E-score (8-mer binding enrichment) (E-score (-0.5 to 0.5)); higher = stronger / more preferred TF binding). Conditions: protein concentration: 100 nM; construct: GST-full length.
T1 sequence: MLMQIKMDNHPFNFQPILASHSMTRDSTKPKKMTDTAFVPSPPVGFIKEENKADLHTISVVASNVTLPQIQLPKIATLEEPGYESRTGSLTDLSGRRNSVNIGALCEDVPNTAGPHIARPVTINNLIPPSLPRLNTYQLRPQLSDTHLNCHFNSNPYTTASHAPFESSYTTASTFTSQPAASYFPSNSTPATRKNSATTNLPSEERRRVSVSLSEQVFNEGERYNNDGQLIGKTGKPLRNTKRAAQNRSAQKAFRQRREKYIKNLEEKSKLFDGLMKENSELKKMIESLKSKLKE
Method in brief: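 GST-tagged yeast TFs (full-length or DNA-binding domain) were made by PURExpress in vitro transcription/translation and applied at about 100-200 nM to universal all-10-mer Agilent arrays. The arrays were made double-stranded by primer extension, on fresh or once-stripped slides. Bound protein was detected with fluorescent anti-GST, and scans were normalised with masliner. Each ungapped eight-base word, pooled with its reverse complement, received an E-score (modified Wilcoxon-Mann-Whitney statistic) from the Universal PBM Analysis Suite.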
AGTTAGGG was tested, and the “PBM E-score” value was -0.0578.
With ATTACGAC the “PBM E-score” value was 0.232.
GAGTCCCA was tested, and the “PBM E-score” value was -0.0319.
In the case of AGAACACC, the “PBM E-score” value is reported as -0.0127.
For CTACATTA, the “PBM E-score” value was 0.0914.
CACAAACA was tested, and the “PBM E-score” value was 0.0601.
ATCTAATG was tested, and the “PBM E-score” value was -0.00795.
For CCATTAGA, the “PBM E-score” value was -0.223.
In the case of ACACAAGA, the “PBM E-score” value is reported as 0.106.
For AATCTTCC, the “PBM E-score” value was 0.0185.
For GAGATTCC, the “PBM E-score” value was 0.162.
In the case of AGAAGTCT, the “PBM E-score” value is reported as -0.127.
With ATGTTAGG the “PBM E-score” value was 0.0267.
With CACACGCG the “PBM E-score” value was 0.0438.
With CCTTCAGA the “PBM E-score” value was -0.128.
With CCGGACGA the “PBM E-score” value was 0.00947.
With AGACCGGG the “PBM E-score” value was -0.187.
In the case of CCCGGGCA, the “PBM E-score” value is reported as -0.211.
For CTCGAATC, the “PBM E-score” value was -0.185.
With CATGTCCG the “PBM E-score” value was -0.23.
In the case of AGCGCTAG, the “PBM E-score” value is reported as -0.0283.
CTACCTCA was tested, and the “PBM E-score” value was -0.109.
For ACGCAAGG, the “PBM E-score” value was -0.0379.
CACCGGTC was tested, and the “PBM E-score” value was -0.337.
AGGGTTGA was tested, and the “PBM E-score” value was -0.102.
AAATCCTT was tested, and the “PBM E-score” value was -0.0537.
CAGTAGGA was tested, and the “PBM E-score” value was -0.153.
With TACCGGCA the “PBM E-score” value was 0.0796.
With ATAACAGA the “PBM E-score” value was 0.142.
With AACAAAAC the “PBM E-score” value was 0.142.
With ACCGACTG the “PBM E-score” value was -0.0929.
For GCCGTGGA, the “PBM E-score” value was -0.183.
For CGACACTA, the “PBM E-score” value was -0.0512.
With AGAACAAC the “PBM E-score” value was 0.0386.
For CATTTATA, the “PBM E-score” value was 0.211.
In the case of CTGGTTCA, the “PBM E-score” value is reported as -0.167.
In the case of AAGCCCTT, the “PBM E-score” value is reported as -0.155.
With CATACCCA the “PBM E-score” value was 0.086.
With AGGGGACG the “PBM E-score” value was -0.145.
In the case of AATAAGTA, the “PBM E-score” value is reported as 0.248.
ATCTTTCA was tested, and the “PBM E-score” value was 0.142.
With AGTCTTGC the “PBM E-score” value was -0.0489.
For GGGGTTCA, the “PBM E-score” value was -0.0521.
In the case of AGTCCAAC, the “PBM E-score” value is reported as -0.102.
For AGATTTGA, the “PBM E-score” value was 0.147.
With GCGCCCTA the “PBM E-score” value was -0.187.
GTGTACGA was tested, and the “PBM E-score” value was -0.014.
For ACAAGCAC, the “PBM E-score” value was -0.0424.
AAAAAGTG was tested, and the “PBM E-score” value was -0.0328.
With CCGGTCGC the “PBM E-score” value was -0.124.
For CCTGAAAA, the “PBM E-score” value was -0.101.
With ATAGTGAT the “PBM E-score” value was 0.0417.
GCCCAGAC was tested, and the “PBM E-score” value was -0.309.
With ACTCTTAC the “PBM E-score” value was 0.149.
With AAGTGTAG the “PBM E-score” value was 0.0123.
With CGGTCCGA the “PBM E-score” value was -0.0643.
TAGAAAGA was tested, and the “PBM E-score” value was 0.0209.
With AATAGGAG the “PBM E-score” value was -0.303.
With GACGCAGC the “PBM E-score” value was -0.186.
ACTAGGAG was tested, and the “PBM E-score” value was -0.16.
In the case of AATTGAAG, the “PBM E-score” value is reported as -0.0129.
With AGAAGCGC the “PBM E-score” value was 0.0405.
With ATCCTTGA the “PBM E-score” value was 0.0934.
For CGAGATGC, the “PBM E-score” value was 0.00818.
ACCCTCAA was tested, and the “PBM E-score” value was -0.194.
GGGACCCA was tested, and the “PBM E-score” value was -0.124.
With ATATCAGG the “PBM E-score” value was -0.0242.
With AATTTCCG the “PBM E-score” value was 0.18.
In the case of ATTTCAAA, the “PBM E-score” value is reported as 0.164.
For CACGCGCA, the “PBM E-score” value was -0.149.
AATAGCTG was tested, and the “PBM E-score” value was 0.0377.
With CCTCCGCC the “PBM E-score” value was -0.175.
With GGTGGGAA the “PBM E-score” value was 0.0286.
In the case of CTATAGTA, the “PBM E-score” value is reported as 0.109.
AGTAGGCG was tested, and the “PBM E-score” value was -0.00702.
With CAACTCGA the “PBM E-score” value was 0.108.
With ACGACTGA the “PBM E-score” value was -0.0442.
For TACTGTAA, the “PBM E-score” value was 0.184.
In the case of CGCCATGA, the “PBM E-score” value is reported as -0.043.
With ATTGTCTC the “PBM E-score” value was -0.017.
With TGAAACCA the “PBM E-score” value was 0.157.
AGCCTTAT was tested, and the “PBM E-score” value was -0.00116.
GACGGACA was tested, and the “PBM E-score” value was 0.194.
In the case of GGGATCAA, the “PBM E-score” value is reported as -0.0601.
CGGTGGAG was tested, and the “PBM E-score” value was -0.136.
With CTCAAGCC the “PBM E-score” value was -0.13.
With CGGCCGAA the “PBM E-score” value was 0.0508.
With GAGAGAGC the “PBM E-score” value was -0.275.
For CTATCCAG, the “PBM E-score” value was -0.0759.
In the case of AGTAGCTA, the “PBM E-score” value is reported as 0.158.
GAATGCGA was tested, and the “PBM E-score” value was 0.0823.
AGCATACA was tested, and the “PBM E-score” value was -0.141.
For GGTAGCAC, the “PBM E-score” value was -0.152.
GTTTCGGA was tested, and the “PBM E-score” value was -0.0625.
With AAGTAATT the “PBM E-score” value was 0.181.
In the case of AGGCCGTG, the “PBM E-score” value is reported as -0.0992.
ATTATTTC was tested, and the “PBM E-score” value was 0.3.
For CCTCCCAG, the “PBM E-score” value was -0.298.
In the case of CACAACGC, the “PBM E-score” value is reported as 0.0644.
AATTGCAA was tested, and the “PBM E-score” value was 0.0827.
CCCAGCGC was tested, and the “PBM E-score” value was -0.201.
In the case of CATGCGCC, the “PBM E-score” value is reported as -0.0427.
With AACAGGTT the “PBM E-score” value was -0.0011.
For AGTTCATG, the “PBM E-score” value was 0.171.
With CAATCAGC the “PBM E-score” value was -0.0118.
In the case of ATGACGTC, the “PBM E-score” value is reported as 0.255.
For AATTGATG, the “PBM E-score” value was 0.246.
With AAGGTCTC the “PBM E-score” value was -0.206.
For GCAACGAA, the “PBM E-score” value was 0.17.
With ATCTAAAC the “PBM E-score” value was -0.0621.
In the case of TTCGCAAA, the “PBM E-score” value is reported as 0.218.
In the case of AACCCCTG, the “PBM E-score” value is reported as -0.172.
With ACTGCCAA the “PBM E-score” value was -0.0251.
In the case of AGTTGATC, the “PBM E-score” value is reported as 0.0859.
With AGGAGAAT the “PBM E-score” value was -0.0675.
With AGAATATC the “PBM E-score” value was 0.113.
ACGAACGA was tested, and the “PBM E-score” value was 0.0977.
For GTTTGTGA, the “PBM E-score” value was 0.0178.
With AGACATGG the “PBM E-score” value was 0.122.
AGACGTGA was tested, and the “PBM E-score” value was 0.112.
CGTCATGC was tested, and the “PBM E-score” value was 0.0536.
For ATCAATGG, the “PBM E-score” value was 0.0495.
In the case of AACTGAGC, the “PBM E-score” value is reported as -0.145.
CCGATAGG was tested, and the “PBM E-score” value was 0.0342.
CTGCCACC was tested, and the “PBM E-score” value was -0.266.
ACAAGCGC was tested, and the “PBM E-score” value was 0.0323.
In the case of ACCGAATC, the “PBM E-score” value is reported as -0.0204.
In the case of GCATGTCC, the “PBM E-score” value is reported as -0.192.
In the case of ACGCATCT, the “PBM E-score” value is reported as 0.0745.
In the case of CAGTCGCA, the “PBM E-score” value is reported as -0.106.
With TGTAGACA the “PBM E-score” value was 0.0508.
CGGCTCAG was tested, and the “PBM E-score” value was -0.0147.
For CATGATAA, the “PBM E-score” value was 0.195.
CTGTTCTA was tested, and the “PBM E-score” value was -0.0447.
In the case of CTCGGAAC, the “PBM E-score” value is reported as 0.0456.
ATCGTGTA was tested, and the “PBM E-score” value was 0.0563.
In the case of ACGCATAG, the “PBM E-score” value is reported as -0.0217.
CACACCTA was tested, and the “PBM E-score” value was -0.00955.
For CGGGGCCA, the “PBM E-score” value was -0.187.
With ACTGGCAT the “PBM E-score” value was -0.144.
In the case of CAATTATG, the “PBM E-score” value is reported as 0.141.
For ACGCATAT, the “PBM E-score” value was 0.171.
With TATTACGA the “PBM E-score” value was 0.257.
CCTCGTTC was tested, and the “PBM E-score” value was -0.174.
With ATATTGAT the “PBM E-score” value was 0.249.
In the case of ATCAAACA, the “PBM E-score” value is reported as 0.274.
For AATCCCAA, the “PBM E-score” value was 0.0459.
TTTCGAAA was tested, and the “PBM E-score” value was 0.0829.
In the case of AGGTACTG, the “PBM E-score” value is reported as -0.0631.
In the case of GGGACCAC, the “PBM E-score” value is reported as -0.174.
For ATTAGACA, the “PBM E-score” value was 0.0378.
ACGGAGAT was tested, and the “PBM E-score” value was -0.0366.
AAATTAAC was tested, and the “PBM E-score” value was 0.182.
AGCCGATG was tested, and the “PBM E-score” value was -0.023.
CTGGTCCC was tested, and the “PBM E-score” value was -0.308.
CCAACGAG was tested, and the “PBM E-score” value was -0.121.
AACTATTA was tested, and the “PBM E-score” value was 0.193.
ACTTAATG was tested, and the “PBM E-score” value was 0.227.
In the case of ATATTATG, the “PBM E-score” value is reported as 0.379.
GTCGCTAA was tested, and the “PBM E-score” value was 0.0236.
For ATATGCAA, the “PBM E-score” value was 0.0615.
CATCCTCG was tested, and the “PBM E-score” value was -0.0784.
For AGCGTTCC, the “PBM E-score” value was 0.00059.
GATTAATC was tested, and the “PBM E-score” value was 0.145.
In the case of CTATTGAG, the “PBM E-score” value is reported as 0.144.
In the case of CTACTCTA, the “PBM E-score” value is reported as 0.0932.
In the case of GATCTGAC, the “PBM E-score” value is reported as -0.0318.
For CGATTAAA, the “PBM E-score” value was 0.156.
ATTTGGTA was tested, and the “PBM E-score” value was 0.252.
CCCGGGTC was tested, and the “PBM E-score” value was -0.141.
With AGCGCGGC the “PBM E-score” value was -0.0509.
With CGGGTAAA the “PBM E-score” value was 0.183.
